Paper PMC3185054
No constants are given. Whether binding was seen depends on the method and setting. In cells and extracts the contact can be indirect. Some entries that bind do so weakly or less than the wild type. Tags and fused reporters may be left off the sequences shown.

Key:
[1] = target: T1, ABCG2 (breast cancer resistance protein), wild type, tagged N-terminally with fragments of venus YFP (human), Q9UNQ0; assay: split reporter; venus YFP BiFC in transiently co-transfected HEK293T cells at 37°C; read by flow cytometry, live cell imaging and fluorescence microscopy of fixed cells; single transfections as negative controls; settings: remark: other sources report otherwise
T1 chain: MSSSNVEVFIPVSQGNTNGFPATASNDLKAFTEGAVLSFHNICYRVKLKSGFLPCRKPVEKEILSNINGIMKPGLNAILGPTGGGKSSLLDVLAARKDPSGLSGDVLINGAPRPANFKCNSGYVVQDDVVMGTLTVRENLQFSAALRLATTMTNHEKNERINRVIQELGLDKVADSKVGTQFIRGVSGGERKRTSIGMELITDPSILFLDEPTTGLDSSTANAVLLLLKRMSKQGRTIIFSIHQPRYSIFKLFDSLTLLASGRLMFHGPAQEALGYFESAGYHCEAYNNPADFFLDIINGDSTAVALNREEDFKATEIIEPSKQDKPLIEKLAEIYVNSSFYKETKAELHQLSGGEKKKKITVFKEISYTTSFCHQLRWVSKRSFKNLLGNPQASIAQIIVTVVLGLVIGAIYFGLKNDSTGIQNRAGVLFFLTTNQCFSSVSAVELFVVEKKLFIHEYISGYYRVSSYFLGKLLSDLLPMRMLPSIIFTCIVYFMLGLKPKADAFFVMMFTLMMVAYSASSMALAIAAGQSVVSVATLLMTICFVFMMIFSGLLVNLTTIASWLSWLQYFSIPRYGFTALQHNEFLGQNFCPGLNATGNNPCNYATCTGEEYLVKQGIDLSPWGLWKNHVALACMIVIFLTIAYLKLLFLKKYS

[2] = target: T1, ABCG2 (breast cancer resistance …); assay: split reporter; venus YFP BiFC in HEK293T cells transfected in 96-well plates, live cells imaged 48 hours after transfection on an ImageXpress Micro system; percentage of BiFC positive cells and mean BiFC intensity by automated image analysis; settings: remark: other sources report otherwise
[3] = target: ABCG2 E211Q (Walker-B glutamate mutant), tagged N-terminally with fragments of venus YFP (human) (UniProt Q9UNQ0); assay: as above
[4] = target: ABCG2 C603A, tagged N-terminally with fragments of venus YFP (human) (UniProt Q9UNQ0); assay: as above

B1: ABCG2 (breast cancer resistance protein), wild type, tagged N-terminally with fragments of venus YFP, Q9UNQ0 1-655 (protein)
chain: MSSSNVEVFIPVSQGNTNGFPATASNDLKAFTEGAVLSFHNICYRVKLKSGFLPCRKPVEKEILSNINGIMKPGLNAILGPTGGGKSSLLDVLAARKDPSGLSGDVLINGAPRPANFKCNSGYVVQDDVVMGTLTVRENLQFSAALRLATTMTNHEKNERINRVIQELGLDKVADSKVGTQFIRGVSGGERKRTSIGMELITDPSILFLDEPTTGLDSSTANAVLLLLKRMSKQGRTIIFSIHQPRYSIFKLFDSLTLLASGRLMFHGPAQEALGYFESAGYHCEAYNNPADFFLDIINGDSTAVALNREEDFKATEIIEPSKQDKPLIEKLAEIYVNSSFYKETKAELHQLSGGEKKKKITVFKEISYTTSFCHQLRWVSKRSFKNLLGNPQASIAQIIVTVVLGLVIGAIYFGLKNDSTGIQNRAGVLFFLTTNQCFSSVSAVELFVVEKKLFIHEYISGYYRVSSYFLGKLLSDLLPMRMLPSIIFTCIVYFMLGLKPKADAFFVMMFTLMMVAYSASSMALAIAAGQSVVSVATLLMTICFVFMMIFSGLLVNLTTIASWLSWLQYFSIPRYGFTALQHNEFLGQNFCPGLNATGNNPCNYATCTGEEYLVKQGIDLSPWGLWKNHVALACMIVIFLTIAYLKLLFLKKYS
Q: Which results are given for B1?
A: binding [1]: binds; binding [2]: binds

B2: ABCG2 E211Q (Walker-B glutamate mutant), tagged N-terminally with fragments of venus YFP (protein, UniProt Q9UNQ0 1-655)
chain: MSSSNVEVFIPVSQGNTNGFPATASNDLKAFTEGAVLSFHNICYRVKLKSGFLPCRKPVEKEILSNINGIMKPGLNAILGPTGGGKSSLLDVLAARKDPSGLSGDVLINGAPRPANFKCNSGYVVQDDVVMGTLTVRENLQFSAALRLATTMTNHEKNERINRVIQELGLDKVADSKVGTQFIRGVSGGERKRTSIGMELITDPSILFLDQPTTGLDSSTANAVLLLLKRMSKQGRTIIFSIHQPRYSIFKLFDSLTLLASGRLMFHGPAQEALGYFESAGYHCEAYNNPADFFLDIINGDSTAVALNREEDFKATEIIEPSKQDKPLIEKLAEIYVNSSFYKETKAELHQLSGGEKKKKITVFKEISYTTSFCHQLRWVSKRSFKNLLGNPQASIAQIIVTVVLGLVIGAIYFGLKNDSTGIQNRAGVLFFLTTNQCFSSVSAVELFVVEKKLFIHEYISGYYRVSSYFLGKLLSDLLPMRMLPSIIFTCIVYFMLGLKPKADAFFVMMFTLMMVAYSASSMALAIAAGQSVVSVATLLMTICFVFMMIFSGLLVNLTTIASWLSWLQYFSIPRYGFTALQHNEFLGQNFCPGLNATGNNPCNYATCTGEEYLVKQGIDLSPWGLWKNHVALACMIVIFLTIAYLKLLFLKKYS
Q: Which binding [3] does the source give for B2 here?
A: binds

B3: ABCG2 C603A, tagged N-terminally with fragments of venus YFP (protein, UniProt Q9UNQ0 1-655)
chain: MSSSNVEVFIPVSQGNTNGFPATASNDLKAFTEGAVLSFHNICYRVKLKSGFLPCRKPVEKEILSNINGIMKPGLNAILGPTGGGKSSLLDVLAARKDPSGLSGDVLINGAPRPANFKCNSGYVVQDDVVMGTLTVRENLQFSAALRLATTMTNHEKNERINRVIQELGLDKVADSKVGTQFIRGVSGGERKRTSIGMELITDPSILFLDEPTTGLDSSTANAVLLLLKRMSKQGRTIIFSIHQPRYSIFKLFDSLTLLASGRLMFHGPAQEALGYFESAGYHCEAYNNPADFFLDIINGDSTAVALNREEDFKATEIIEPSKQDKPLIEKLAEIYVNSSFYKETKAELHQLSGGEKKKKITVFKEISYTTSFCHQLRWVSKRSFKNLLGNPQASIAQIIVTVVLGLVIGAIYFGLKNDSTGIQNRAGVLFFLTTNQCFSSVSAVELFVVEKKLFIHEYISGYYRVSSYFLGKLLSDLLPMRMLPSIIFTCIVYFMLGLKPKADAFFVMMFTLMMVAYSASSMALAIAAGQSVVSVATLLMTICFVFMMIFSGLLVNLTTIASWLSWLQYFSIPRYGFTALQHNEFLGQNFCPGLNATGNNPANYATCTGEEYLVKQGIDLSPWGLWKNHVALACMIVIFLTIAYLKLLFLKKYS
Q: B3 was tested. Which binding [4] did it give?
A: binds
